# Measurements taken from publication PMC11254172 (International Journal for Parasitology: Drugs and Drug …, 2024).
# Where two headings read alike, the source gives them in different places.
# Assays:
# [1] = system: N. caninum NcSpain-7 tachyzoites; settings: in vivo
# [2] = system: T. gondii TgShSp1 oocysts; settings: for Tg-PCR brain positive adults: adult CD1 mice
# [3] = 20 mg/kg/day for 5 days, mice
# [4] = system: zebrafish (Danio rerio) embryos; settings: 96 h exposure
structure (smiles),measurement,setting,value
CC(C)(CO)Cn1nc(-c2ccc3cc(OC4CC4)ccc3c2)c(C(N)=O)c1N [BKI-1708],Nc-PCR positive brain adults,[1],4/14
same,Tg-PCR brain positive adults,[2]; 5 mg/kg/day oral x 5 days,11/12
same,Tg-PCR brain positive pups,[2]; 5 mg/kg/day oral x 5 days,130/132
same,Tg-PCR brain positive adults,[2]; 20 mg/kg/day oral x 5 days,10/12
same,Tg-PCR brain positive pups,[2]; 20 mg/kg/day oral x 5 days,14/90
same,Mean plasma concentration (overall),[3],1.04 ± 0.78 µM
same,Plasma level for each time point / average threshold,[3],below 2 μM
same,Concentration not interfering with zebrafish embryo development,[4]; 0.2 to 50 μM tested,up to 2 μM
same,Effect on zebrafish embryo development at concentrations higher than 2 μM,[4]; above 2 μM up to 50 μM,detrimental effects
